This assay deals with HEK293A TEAD-LUC reporter. Nature of the assay: TEAD-luciferase reporter activity (YAP activation), robust Z score vs plate; higher = stronger YAP/TEAD activation. To be noted: 24 h.

Molecules are shown by their SMILES. Where a name gives a salt, the structure may show the parent alone. The list shows a part of the results. This data set is noisy: repeats of one test often differ as much as different tests do.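 In a drug-repurposing library screen, luminescence reads luciferase driven by eight TEAD-binding elements, stably integrated into human kidney-derived cells. Compounds scoring over five robust Z scores above the plate mean are called hits.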

`COc1c(C(O)CCc2ccc(O)cc2)c(OCCN2CCCCC2)c(OC)c2occc12` (stereo not given): the TEAD-luciferase reporter activity is inactive: -0.518 (compound concentration: 200 nM), inactive: -0.737 (compound concentration: 2 uM) and inactive: -0.611 (compound concentration: 10 uM).
With `CC(=O)N[C@@H]([C@@H](O)[C@H](O)[C@H](O)CO)[C@@H](O)CC(=O)C(=O)O` [sodium aceneuramate], the TEAD-luciferase reporter activity reads like this: (compound concentration: 200 nM) inactive: 0.0947; (compound concentration: 2 uM) inactive: 1.16; (compound concentration: 10 uM) inactive: 2.66.
Take `CC12CC3CC(C)(C1)CC(N)(C3)C2` [Memantine hydrochloride]: the TEAD-luciferase reporter activity (compound concentration: 2 uM) is inactive: -1.08.
As for `CC12CC3CC(C)(C1)CC(N)(C3)C2`, the TEAD-luciferase reporter activity is inactive: 0.419 (compound concentration: 200 nM) and inactive: -0.116 (compound concentration: 10 uM).
`CC12CC[C@@H]3c4ccc(O[C@@H]5O[C@H](CO)[C@@H](O)[C@H](O)[C@H]5O)cc4CC[C@H]3[C@@H]1CC[C@@H]2O` (stereo not given in full) [Estradiol glucoside]: the TEAD-luciferase reporter activity is, setting by setting: (compound concentration: 200 nM) inactive: -2.36; (compound concentration: 2 uM) inactive: -1.06; (compound concentration: 10 uM) inactive: -1.22.
The matching figures for `C#CCC(N)C(=O)O` (stereo not given): inactive: -0.218, inactive: -1.35 and inactive: -0.615.
The matching figures for `CC(=O)[C@@]1(O)[C@H](C)CC2C3CC=C4CC(OP(=O)(O)O)CC[C@]4(C)C3CC[C@@]21C` (stereo not given in full): inactive: -0.456, inactive: -0.537 and inactive: 0.192.
`Nc1nc2ccc(OC(F)(F)F)cc2s1` [riluzole]: where the note is “compound concentration: 2 uM”, the TEAD-luciferase reporter activity is inactive: 1.99.
On to `Nc1nc2ccc(OC(F)(F)F)cc2s1` [Riluzole], for which the TEAD-luciferase reporter activity runs as follows: (compound concentration: 200 nM) inactive: -0.697; (compound concentration: 10 uM) inactive: 0.177.
As to `COc1ncc(-c2nc3c(n2C(C)C)[C@@H](c2ccc(Cl)cc2)N(c2cc(Cl)cn(C)c2=O)C3=O)c(OC)n1`, the TEAD-luciferase reporter activity is inactive: -1.34 (compound concentration: 200 nM), inactive: -0.934 (compound concentration: 2 uM) and active: 5.55 (compound concentration: 10 uM).
The matching figures for `N=C(NCC(F)(F)F)Nc1ccn(CCCCC(N)=O)n1`: inactive: 2.1, inactive: -1 and inactive: 2.09.
Take `CC1CCC2c3c(c4ccccc4n3Cc3ccccc3)CCN2C1` (stereo not given): the TEAD-luciferase reporter activity is inactive: 0.606 (compound concentration: 200 nM), inactive: 4.14 (compound concentration: 2 uM) and active: 18.4 (compound concentration: 10 uM).
The matching figures for `COc1ccccc1N1CCN(CCC(O)c2csc3ccccc23)CC1` (stereo not given): inactive: -0.122, inactive: -0.639 and inactive: -0.183.
As for `CC(=O)c1cc2cccc(OCC(O)CNC(C)C)c2o1` (stereo not given), the TEAD-luciferase reporter activity was inactive: -1.23 (compound concentration: 200 nM), inactive: -1.09 (compound concentration: 2 uM) and inactive: 0.759 (compound concentration: 10 uM).
Taken in the same sequence, the figures for `C#Cc1cnc(O)nc1O` [eniluracil] were inactive: -0.753, inactive: -0.564 and inactive: 1.53.
As for `Cc1noc(NS(=O)(=O)c2cccc3c(N(C)C)cccc23)c1C`, the TEAD-luciferase reporter activity is, setting by setting: (compound concentration: 200 nM) inactive: -0.721; (compound concentration: 2 uM) inactive: -1.25; (compound concentration: 10 uM) inactive: 0.123.
The matching figures for `O=C1CC(=O)[O-]->[Pt+2]2(<-[O-]1)[NH]CC[NH]2`: inactive: -0.905, inactive: -1.02 and inactive: 1.55.

These data come from the supplement of paper PMC10735217.
